In PubChem BioAssay AID624297 (National Center for Advancing Translational Sciences (NCATS), 2012):
Among all 340,000 compounds or so, about 6,200 (1.8%) were called active. The shares of active, inactive and inconclusive entries below differ from those in the screen. The call rests on the fitted dose curve; in most records, active means well fitted activation curve with a large enough effect; inconclusive means small, poorly fitted or top-dose-only effect; inactive means no such curve, though single readings can be large or run the other way. Where the call is inconclusive, the potency comes from a doubtful curve fit.

Assay: A quantitative high throughput screen for small molecules that induce DNA re-replication in SW480 colon adenocarcinoma cells. Further: nearly all actives have a fitted effect of over 55% in size. On re-replication activation: % of control where 0% means no effect.
Settings: Hoechst DNA content imaging, 48 h; re-replication activation: at 46.1 µM (top of the series) unless noted
How it was run: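 First, 250 cells per well were seeded. Next, compound or vehicle (23 nL) was pinned in, plates sat 48 hr at 37 C. Finally Hoechst was added for 40 min before fluorescence scanning.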
Potency means the concentration at half of the fitted maximal effect.

Row | Structure (SMILES) | Potency | re-replication activation
1 | Cc1ccccc1Nc1nc(-c2ccccc2)c(C(=O)Nc2cccnc2)s1 | inconclusive: 20.6 µM [activator, partial curve, poor fit] | 
2 | Cc1ccc2cc(C#N)c(N3CCCC3)nc2c1C | active: 11.2 µM | 
3 | Cn1c2ccccc2c(=O)c2c(=O)n(-c3ccc(F)cc3)c(C3CCCCC3)nc21 | inconclusive: 25.9 µM [activator, partial curve, poor fit] | 
4 | NS(=O)(=O)c1ccc(CNC(=O)c2sccc2-c2ccccc2)cc1 |  | inactive: 1.93%
5 | O=C(c1ccc(NS(=O)(=O)c2cccc(C(F)(F)F)c2)cc1)N1CCCC1 |  | inactive: -3.33%
6 | CCN=C1S/C(=C\c2cc(OCC)c(O)cc2Br)C(=O)N1CC | inconclusive: 20.6 µM [activator, single point] | 
7 | Cc1cc(Nc2cccc(Cl)c2)nc(NCc2ccccc2)n1 | inconclusive: 18.4 µM [activator, single point] | 
8 | Cc1ccc(S(=O)(=O)NC(CC(C)C)C(=O)N2CCOCCOCCOCC2)cc1 (stereo not given) |  | inactive: 5.51%
9 | Fc1ccc(-c2csc3ncnc(N4CCN(c5ccccc5)CC4)c23)cc1 | inconclusive: 20.6 µM [activator, partial curve, poor fit] | 
10 | COc1cc(C(=O)N2CCC3(CC2)NCCc2[nH]cnc23)cc(OC)c1OC |  | inactive: -8.99%
11 | Cc1csc(=O)n1CCC(=O)OC(C)C(=O)NCc1ccccc1 (stereo not given) | inconclusive: 0.82 µM [activator, full curve, poor fit] | 
12 | CC1=C([N+](=O)[O-])C(c2ccc(Cl)cc2)NC(=O)N1C (stereo not given) | inconclusive: 23.1 µM [activator, single point] | 
13 | CCC(C(=O)Nc1nc(C)c(C)s1)c1ccccc1 (stereo not given) | inconclusive: 0.651 µM [activator, partial curve, poor fit] | 
14 | CC(SCC(=O)Nc1ccccc1Br)c1nc2ccccc2c(=O)[nH]1 (stereo not given) | inconclusive: 29.1 µM [activator, single point] | 
15 | Cc1cc(-c2ccc(C(C)C)c(S(=O)(=O)N3CCN(c4ccccc4)CC3)c2)on1 | active: 6.51 µM | 
16 | CC(=O)OCC1=C(C(=O)O)N2C(=O)C(NC(=O)CCn3nc(C)c(Cl)c3C)C2SC1 (stereo not given) | inconclusive: 29.1 µM [activator, single point] | 
17 | COc1ccc(S(=O)(=O)N(C)C[C@H]2Oc3ccc(NC(=O)Cc4cn(C)c5ccccc45)cc3C(=O)N([C@@H](C)CO)C[C@@H]2C)cc1 | inconclusive: 1.46 µM [activator, partial curve, poor fit] | 
18 | Cc1ccc(S(=O)(=O)N2CCOCC2)cc1C(=O)N1CCN(S(=O)(=O)c2cccc(F)c2)CC1 | inconclusive: 29.1 µM [activator, partial curve, poor fit] | 
19 | CCCNC(=O)Cn1sc2nc(C)cc(C)c2c1=O | inconclusive: 18.4 µM [activator, single point] | 
20 | C/C(=N\Nc1ccc2nncn2n1)c1cccs1 | inconclusive: 29.1 µM [activator, single point] | 
21 | CCn1nc(C)c(C(=O)Nc2cc(Oc3ccc(Cl)cc3)cc([N+](=O)[O-])c2)c1C | inconclusive: 20.6 µM [activator, single point] | 
22 | N#C/C(=C\c1c[nH]c2ccccc12)C(N)=O |  | inactive: -5.99%

13 of the compounds above, in markdown.

| Row | Structure (SMILES) | Potency | re-replication activation |
| --- | --- | --- | --- |
| 9 | Fc1ccc(-c2csc3ncnc(N4CCN(c5ccccc5)CC4)c23)cc1 | inconclusive: 20.6 µM [activator, partial curve, poor fit] |  |
| 10 | COc1cc(C(=O)N2CCC3(CC2)NCCc2[nH]cnc23)cc(OC)c1OC |  | inactive: -8.99% |
| 11 | Cc1csc(=O)n1CCC(=O)OC(C)C(=O)NCc1ccccc1 (stereo not given) | inconclusive: 0.82 µM [activator, full curve, poor fit] |  |
| 12 | CC1=C([N+](=O)[O-])C(c2ccc(Cl)cc2)NC(=O)N1C (stereo not given) | inconclusive: 23.1 µM [activator, single point] |  |
| 13 | CCC(C(=O)Nc1nc(C)c(C)s1)c1ccccc1 (stereo not given) | inconclusive: 0.651 µM [activator, partial curve, poor fit] |  |
| 14 | CC(SCC(=O)Nc1ccccc1Br)c1nc2ccccc2c(=O)[nH]1 (stereo not given) | inconclusive: 29.1 µM [activator, single point] |  |
| 15 | Cc1cc(-c2ccc(C(C)C)c(S(=O)(=O)N3CCN(c4ccccc4)CC3)c2)on1 | active: 6.51 µM |  |
| 16 | CC(=O)OCC1=C(C(=O)O)N2C(=O)C(NC(=O)CCn3nc(C)c(Cl)c3C)C2SC1 (stereo not given) | inconclusive: 29.1 µM [activator, single point] |  |
| 17 | COc1ccc(S(=O)(=O)N(C)C[C@H]2Oc3ccc(NC(=O)Cc4cn(C)c5ccccc45)cc3C(=O)N([C@@H](C)CO)C[C@@H]2C)cc1 | inconclusive: 1.46 µM [activator, partial curve, poor fit] |  |
| 18 | Cc1ccc(S(=O)(=O)N2CCOCC2)cc1C(=O)N1CCN(S(=O)(=O)c2cccc(F)c2)CC1 | inconclusive: 29.1 µM [activator, partial curve, poor fit] |  |
| 19 | CCCNC(=O)Cn1sc2nc(C)cc(C)c2c1=O | inconclusive: 18.4 µM [activator, single point] |  |
| 20 | C/C(=N\Nc1ccc2nncn2n1)c1cccs1 | inconclusive: 29.1 µM [activator, single point] |  |
| 21 | CCn1nc(C)c(C(=O)Nc2cc(Oc3ccc(Cl)cc3)cc([N+](=O)[O-])c2)c1C | inconclusive: 20.6 µM [activator, single point] |  |

Additional compounds

Row | Structure (SMILES) | Potency | re-replication activation
23 | CN(C)c1nnnn1-c1ccc(OC(F)(F)F)cc1 | inconclusive: 0.0731 µM [activator, full curve, poor fit] | 
24 | CC/C(=N\NC(=O)c1nnn(-c2nonc2N)c1-c1ccc2c(c1)OCO2)c1ccccc1 | inconclusive: 29.1 µM [activator, single point] | 
25 | CC1CCCCN1S(=O)(=O)c1ccc(C(=O)Nc2nnc(-c3cccs3)o2)cc1 (stereo not given) | inconclusive: 29.1 µM [activator, single point] | 
26 | COc1cccc(OC)c1C(=O)Nc1cccc(-c2nc3ccccc3[nH]2)c1 |  | inactive: 3.59%
27 | CCSc1ccc([C@@H]2[C@H]3C(=O)N(C)C(=O)[C@H]3[C@]3(C(=O)OC)CCCCN23)cc1 | inconclusive: 29.1 µM [activator, single point] | 
28 | CCn1ncc(Br)c1C(=O)Nc1c(C)nn(Cc2c(F)c(F)c(F)c(F)c2F)c1C | inconclusive: 29.1 µM [activator, single point] | 
29 | Cc1ccc2cc(C#N)c(NCCNC(=O)C3CCC3)nc2c1C | inconclusive: 23.1 µM [activator, partial curve, poor fit] | 
30 | O=C1CCCN1CCCNCCCn1cnc2c(OCc3ccccc3)ncnc21 | inconclusive: 0.366 µM [activator, partial curve, poor fit] | 
31 | CCN(C[C@H]1N[C@@](Cc2ccccc2)(C(=O)OC)[C@H]2C(=O)N(Cc3ccccc3)C(=O)[C@@H]12)C(=O)Nc1ccc(C)cc1 | inconclusive: 3.26 µM [activator, single point] | 
32 | Cc1ccc2nc(N3C(=O)CNC3=S)sc2c1 | inconclusive: 18.4 µM [activator, single point] | 
33 | CC(=O)N1CSCC1C(=O)NNS(=O)(=O)c1ccccc1 (stereo not given) | inconclusive: 3.26 µM [activator, single point] | 
34 | O=C(CC1NCCc2ccccc21)Nc1cccc(Cl)c1 (stereo not given) | inconclusive: 25.9 µM [activator, single point] | 
35 | O=C(CSc1nnc2ccc(-c3ccccn3)nn12)Nc1ccccc1 | inconclusive: 20.6 µM [activator, partial curve, poor fit] | 
36 | O=C(c1cccs1)N1CCN(Cc2cccc([N+](=O)[O-])c2)CC1 |  | inactive: -0.332%
37 | Cc1c(Cl)cccc1NC(=O)CN1CCC(C(O)(c2ccccc2)c2ccccc2)CC1 | inconclusive: 20.6 µM [activator, partial curve] | 
38 | O=[N+]([O-])c1cccc(C=NNc2ccc3ccccc3n2)c1O | inconclusive: 4.11 µM [activator, full curve] | 
39 | CC(C)C[C@H](NC(=O)OC(C)(C)C)C(=O)N[C@@H](CO)[C@H](O)[C@@H]1C[C@@H]1C(=O)NC1CC1 |  | inactive: -0.668%
40 | O=C(COC(=O)c1ccccc1)Nc1cccc(S(=O)(=O)N2CCCCC2)c1 |  | inactive: -2.33%
41 | CCOC(=O)c1ccc(-c2cccc(-c3cc(=O)oc4cc(OC)cc(OC)c34)c2)cc1 | inconclusive: 6.51 µM [activator, single point] | 
42 | COc1ccccc1CNC(=O)c1cc(C2CC2)nc2c1cnn2C(C)C |  | inactive: 8.9%
43 | O=C(COc1ccc(-c2nnco2)cc1)Nc1c(F)cccc1F | inconclusive: 5.8 µM [activator, single point] | 
44 | Cc1cc(C)n(-c2cc(C(C)(C)C)nc3c(-c4ccc(Cl)cc4)cnn23)n1 | inconclusive: 23.1 µM [activator, single point] | 

Row | Structure (SMILES) | Potency | re-replication activation
45 | O=C(CCSc1ccccc1)Nc1ncccn1 |  | inactive: 23%
46 | CC(C)n1cc(/C=C2\NC(=O)N(c3cccc(Cl)c3)C2=O)c2ccccc21 | inconclusive: 3.66 µM [activator, partial curve] | 
47 | COC1C=CO[C@@]2(C)Oc3c(C)c(O)c4c(O)c(c5c(nc6cc(C)ccn65)c4c3C2=O)NC(=O)/C(C)=C\C=CC(C)C(O)[C@@H](C)C(O)C(C)[C@@H](OC(C)=O)C1C (stereo not given in full) | inconclusive: 33.5 µM [activator, single point] | 
48 | OCCNc1cc(-n2nc(-c3ccccc3)cc2-c2ccccc2)ncn1 |  | inactive: -4.72%
49 | Cn1cc(/C=C/C(=O)c2ccccc2)c2ccccc21 | inconclusive: 23.1 µM [activator, single point] | 
50 | O=C(CSc1nc2ccccc2s1)N/N=C/c1ccco1 |  | inactive: 14.3%
51 | CCCCC(=O)Nc1c(C)cc(C)cc1Cl | inconclusive: 6.51 µM [activator, single point] | 
52 | COCCOC1CCN(C(=O)C2CCC(=O)N(CCc3ccc(OC)cc3)C2)CC1 (stereo not given) | inconclusive: 23.1 µM [activator, single point] | 
53 | CCOC(=O)c1cc(NC(=O)c2ccoc2C)cc(C(=O)OCC)c1 |  | inactive: 0.807%
54 | CC(C)(C)c1cc(OC(=O)C2CCCC2)ccc1O | inconclusive: 32.6 µM [activator, partial curve, poor fit] | 
55 | CC(=O)N1c2ccc(S(=O)(=O)NCCC(=O)Nc3ccccc3C)cc2CC1C (stereo not given) | inconclusive: 20.6 µM [activator, single point] | 
56 | OC[C@@H]1[C@@H](c2ccc(Cl)cc2)C(c2ccc(F)cc2)=NN1c1ccccc1 | active: 4.11 µM | 
57 | CCN(Cc1ccccc1)S(=O)(=O)c1cc(C(=O)NC2CCCCCC2)ccc1OC | inconclusive: 16.4 µM [activator, partial curve, poor fit] | 
58 | COc1ccc(-c2c3c(=O)n(C)c(=O)n(C)c3cn2C2CCCCC2)cc1 |  | inactive: -14.2%
59 | O=C(CSc1ncn[nH]1)Nc1ccc(Cl)c(S(=O)(=O)N2CCOCC2)c1 |  | inactive: -3.75%
60 | CC(/C=N/NC(=O)c1cc(-c2ccc(C)s2)[nH]n1)=C\c1ccccc1 | inconclusive: 18.4 µM [activator, single point] | 
61 | Oc1ccc(NCc2ccccc2OCc2ccccc2F)cc1 | inconclusive: 32.6 µM [activator, partial curve, poor fit] | 
62 | Cc1ccc(CN(C(=O)COc2ccc(Br)cc2)C2CCS(=O)(=O)C2)o1 (stereo not given) | inconclusive: 29.1 µM [activator, single point] | 
63 | Cc1ccc2nc(-c3sc4nc(C)ccc4c3N)[nH]c2c1 | inconclusive: 29.1 µM [activator, single point] | 
64 | C=C(c1ccc(OC)cc1)c1ccc(OC)cc1 | inconclusive: 23.1 µM [activator, single point] | 
65 | Oc1ccc(O)cc1 | inconclusive: 14 µM [activator, partial curve, poor fit] | 
